Reference: PubChem BioAssay AID1347075 (National Center for Advancing Translational Sciences (NCATS), 2019)
Among all 400,000 compounds or so, about 5,500 (1.4%) were called active. This list was built around the results that the source calls inconclusive (neither active nor inactive); the mix of calls is not that of the screen. Calls come from the whole dose curve; as a rule, active = well fitted cell-killing curve with a large enough effect; inconclusive = small, poorly fitted or top-dose-only effect, or effect the other way; inactive = flat fitted curve, though single readings scatter. A potency beside an inconclusive call is a rough fit, not a confirmed value. A structure can be active in one record and inactive in another.
% is set by controls: 0 for no effect and ±100 for the full control effect; potency is the fitted concentration of half-maximal effect.

Test: qHTS assay for MDR1-selective chemotherapeutics: Primary screen using the parental adenocarcinoma cell KB-3-1; note: nearly all actives have a fitted effect of over 60% in size
Details: KB-3-1 viability, CellTiter-Glo ATP luminescence, 72 h; activity change, negative = cytotoxic: at 46.1 µM (top of the series)
Summary of the method: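 Cells are dispensed, compounds pinned in, plates held at 37 °C for 72 h, then CellTiter-Glo is added and luminescence read after 10 minutes. Cell line: parental KB-3-1 in phenol-red-free DMEM, 10% FBS.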
For O=c1cc(-c2cccc(F)c2)[nH]c2ccccc12, the Potency was active: 0.366 µM. With CCOC(=O)CN1C(=O)C(=O)c2cccc(C)c21 the Potency was inconclusive: 29.1 µM [cytotoxic, single point]. With COc1ccc(C(=O)c2c(C(F)(F)F)oc3c2C(=O)c2ccccc2C3=O)cc1OC the Potency was active: 9.2 µM. In the case of Cc1ccc(-c2c(C(=O)N(C)Cc3ccccc3)oc(=O)c3ccccc23)cc1, the Potency is reported as active: 18.4 µM. In the case of CC(C)NS(=O)(=O)c1ccc(NC(=O)C(C)Oc2ccc(C(=O)c3ccccc3)cc2)cc1 (stereo not drawn), the Potency is reported as inconclusive: 16.4 µM [cytotoxic, single point]. In the case of COc1ccc(CN2C(=O)[C@H]3Cc4c([nH]c5ccccc45)C(C)(C)N3C2=O)cc1, the Potency is reported as inconclusive: 29.1 µM [cytotoxic, single point]. For CC(C)OP(=O)(OC(C)C)C(Nc1ccccc1)c1cccc([N+](=O)[O-])c1 (stereo not drawn), the Potency was inconclusive: 1.84 µM [rising, partial curve, poor fit]. In the case of COc1ccc(NC(=O)Nc2ccccc2F)cc1, the Potency is reported as inconclusive: 7.31 µM [cytotoxic, single point]. With Cc1ccnc(NC(=O)C2CC(=O)N(Cc3ccccc3)C2)c1 (stereo not drawn) the Potency was inconclusive: 2.91 µM [rising, partial curve]. In the case of NS(=O)(=O)c1ccc(CCNC(=O)c2cncc(Br)c2)cc1, the Potency is reported as inconclusive: 29.1 µM [cytotoxic, single point]. For CCn1cc(/C=C(\NC(=O)c2ccccc2)C(=O)NCCCn2ccnc2)c2ccccc21, the “activity change, negative = cytotoxic” value was inactive: -21.2%. In the case of O=C(Nc1ccc(Cl)cc1Cl)c1ccc2c(c1)OCCO2, the Potency is reported as inconclusive: 29.1 µM [cytotoxic, single point]. With CC1CCCCC1NC(=O)/C(C#N)=C/c1ccc2c(c1)OCCO2 (stereo not drawn) the Potency was active: 18.4 µM. For CCCC(=O)Nc1ccc(NC(=S)NC(=O)c2ccccc2[N+](=O)[O-])cc1, the Potency was inconclusive: 29.1 µM [cytotoxic, single point]. In the case of COc1ccc([C@H]2/C=C\CN(C(=O)c3ccc(C)cc3)[C@@H](C)C(=O)N2Cc2ccc(F)cc2)cc1, the Potency is reported as inconclusive: 29.1 µM [cytotoxic, single point]. With CCOc1cccc2cc(C(=O)NCc3ccccc3Cl)c(=O)oc12 the “activity change, negative = cytotoxic” value was inactive: 1.62%. In the case of CC1=C/C(=C(/c2cc(C)c(O)c(Br)c2)c2ccccc2S(=O)(=O)O)C=C(Br)C1=O, the Potency is reported as inconclusive: 23.1 µM [cytotoxic, partial curve]. In the case of Cc1cccc(-c2nc(C)c(CCNC(=O)c3cccs3)s2)c1, the “activity change, negative = cytotoxic” value is reported as inactive: 3.59%. For CC(C)C[C@H]1CNC(=O)C(=O)N1C[C@@H]1CCCN1C[C@H](Cc1ccccc1)N1C[C@H](CC(C)C)N(CCc2ccccc2)C(=O)C1=O, the Potency was inconclusive: 29.1 µM [cytotoxic, single point]. For COC(=O)C1=CN(c2ccc(OC)cc2)C(N)=C(C#N)C1c1ccccc1F (stereo not drawn), the Potency was inconclusive: 23.1 µM [cytotoxic, single point]. In the case of CCCCCCCCN1C(=O)[C@H](CC(=O)NCCCC)C[C@@]2(C(=O)OC)CC(C)(C)CC=C12, the Potency is reported as inconclusive: 29.1 µM [cytotoxic, single point]. In the case of C=C1CCN([C@H](C(=O)OCc2cccc(C)c2)C(C)C)S(=O)(=O)c2ccccc21, the Potency is reported as inconclusive: 18.4 µM [cytotoxic, partial curve, poor fit]. In the case of Cc1cc(/C=N/n2cnnc2)c(C)n1-c1ccc2c(c1)OCO2, the “activity change, negative = cytotoxic” value is reported as inactive: -30.1%. With CCCC1=Nc2cc(C(=O)NCCCOC(C)C)ccc2Sc2ccccc21 the Potency was active: 4.61 µM. In the case of Cc1[nH]c2ccc(C(=O)NCCN3CCCCCC3)cc2c1C, the “activity change, negative = cytotoxic” value is reported as inactive: -1.74%. For COc1cc(OC)c(-c2nn3c(C4CCCCC4)nnc3s2)cc1OC, the activity change, negative = cytotoxic was inconclusive: -41.8%. With CCc1nccn1CCC(=O)NC1CC(C)(C)Cc2c1cnn2-c1cccc(F)c1 (stereo not drawn) the Potency was inconclusive: 0.0517 µM [cytotoxic, full curve]. In the case of COc1ccc(C(=O)NC(=S)N2CC(C)OC(C)C2)cc1 (stereo not drawn), the “activity change, negative = cytotoxic” value is reported as inactive: 7.58%. With Cc1cc(=O)[nH]c(N=N/C(=N/Nc2ccccc2C)c2ccccc2)n1 the Potency was active: 4.61 µM. In the case of CC1=CCC2C(=O)N(c3cccc(C(=O)Nc4ccc(Cl)cc4)c3)C(=O)C2C1 (stereo not drawn), the “activity change, negative = cytotoxic” value is reported as inactive: 12.2%. With COc1cccc(/C=N/Nc2ncnc(Cl)c2N)c1O the Potency was inconclusive: 2.31 µM [cytotoxic, partial curve, poor fit]. For FC(F)Oc1ccc(-n2cc(-c3ccc(Cl)cc3)[n+]3c2CCCCC3)cc1, the Potency was inconclusive: 5.8 µM [cytotoxic, partial curve, poor fit]. For O=[N+]([O-])c1ccc(Nc2ccccc2)c2nonc12, the “activity change, negative = cytotoxic” value was inactive: 2%. With CCOc1ccccc1/C=N/Nc1ccnc(=O)[nH]1 the “activity change, negative = cytotoxic” value was inactive: 8.51%. With CN(C)c1nc(-c2ccccn2)nnc1-c1ccccc1 the Potency was inconclusive: 29.1 µM [cytotoxic, single point]. In the case of Cc1ccc(S(=O)(=O)NCC(=O)NNC(=O)c2ccc(Br)cc2)cc1C, the Potency is reported as inconclusive: 29.1 µM [rising, single point]. With Cc1cc(C=O)c(C)n1-c1ccc(N2CCCCC2)c([N+](=O)[O-])c1 the Potency was inconclusive: 18.4 µM [cytotoxic, single point]. For CCCCN(C(=O)c1ccco1)C1CCS(=O)(=O)C1 (stereo not drawn), the Potency was inconclusive: 20.6 µM [rising, partial curve, poor fit]. For COc1cc2ccccc2cc1C(=O)Nc1ccccc1Cl, the Potency was inconclusive: 29.1 µM [cytotoxic, single point]. For O=C(NCCc1ccco1)C(=O)NCC1OCCCN1S(=O)(=O)c1ccccc1 (stereo not drawn), the “activity change, negative = cytotoxic” value was inactive: 8.61%. For COc1ccccc1-c1sc2cc3c(cc2c1-c1ccc(OCCN2CCCCC2)cc1)OCO3, the Potency was inconclusive: 29.1 µM [cytotoxic, single point]. For CCOc1ccc(OCC)c(NC(=O)C2CCCN2S(=O)(=O)c2cccc3cccnc23)c1 (stereo not drawn), the Potency was inconclusive: 18.4 µM [cytotoxic, single point]. With CCS(=O)(=O)c1ncc(Cl)c(C(=O)Nc2ccccc2OC)n1 the Potency was active: 2.59 µM. For Cc1ccnc(N(C(=O)c2cccs2)C(=O)c2cccs2)c1, the Potency was inconclusive: 11.6 µM [cytotoxic, partial curve]. With CC(=O)Nc1cccc(/C(C)=N/NC(=O)c2ccc(CN3CCOCC3)cc2)c1 the activity change, negative = cytotoxic was inconclusive: 28.7%. With COc1ccccc1N1CCN(Cc2cc3c(cc2O)OCO3)CC1 the “activity change, negative = cytotoxic” value was inactive: -9.21%. With Cc1ccc(S(=O)(=O)c2c(C)nn(C(C)(C)C)c2OC(=O)C2CCCC2)cc1 the Potency was inconclusive: 29.1 µM [cytotoxic, single point]. With c1coc(CNc2ncnc3nc[nH]c23)c1 the Potency was “inactive”. With Cc1ccc(C(=O)Cn2c(C(=O)/C=C/c3ccccc3)nc3ccccc32)cc1 the Potency was inconclusive: 20.6 µM [cytotoxic, single point]. For COc1ccc(CN(C(C)=O)c2cccc(C)c2C)cc1, the Potency was inconclusive: 29.1 µM [cytotoxic, single point]. In the case of Cc1nc(C)c(C(=O)Nc2ncc([N+](=O)[O-])s2)o1, the “activity change, negative = cytotoxic” value is reported as inactive: -23.4%. For CC[C@]1(C(=O)OC)[C@H]2C(=O)N(Cc3ccccc3)C(=O)[C@H]2[C@H]2CN=C(SCc3ccc(Cl)cc3)N21, the Potency was inconclusive: 16.4 µM [cytotoxic, single point]. With Cc1ccc(-n2c(-c3cccc(C)c3)nc3c(cnn3-c3ccccc3)c2=O)cc1 the Potency was inconclusive: 25.9 µM [cytotoxic, single point]. For Cc1cccc(OCC(=O)NC(C)C(=O)N/N=C/c2c(OCc3ccccc3)ccc3ccccc23)c1 (stereo not drawn), the Potency was inconclusive: 29.1 µM [cytotoxic, single point]. For Cc1nc(N2CCN(S(=O)(=O)c3ccccc3C#N)CC2)c2c(-c3ccccc3)csc2n1, the Potency was inconclusive: 20.6 µM [cytotoxic, single point]. For C#CCOCCOCCOCCNc1nc(N2CCN(C(=O)Cn3cc(CCCCN)nn3)CC2)nc(N2CCN(C(=O)[C@H](C)n3cc(CCC(=O)O)nn3)CC2)n1, the Potency was inconclusive: 29.1 µM [cytotoxic, single point]. With O=C(c1cc(-c2cccnc2)nc2ccccc12)N1CCCc2ccccc21 the Potency was inconclusive: 8.2 µM [cytotoxic, partial curve, poor fit]. In the case of O=C(OCCOCCN=C1NS(=O)(=O)c2ccccc21)C1CC(=O)N(c2ccccc2)C1 (stereo not drawn), the activity change, negative = cytotoxic is reported as inconclusive: 35.1%. In the case of CC(=O)Nc1cnc(-c2ccc3c(c2)OCO3)cn1, the “activity change, negative = cytotoxic” value is reported as inactive: 0%. For CS(=O)(=O)N(CC(=O)N1CCCCCC1)c1ccccc1, the “activity change, negative = cytotoxic” value was inactive: 10.1%. With C(=C\c1ccc2ccccc2n1)/c1ccc2ccccc2n1 the Potency was inconclusive: 18.4 µM [cytotoxic, single point]. For COc1cccc(C2c3cc4c(cc3OC(N3CCOCC3)C2C)OCO4)c1O (stereo not drawn), the Potency was inconclusive: 29.1 µM [cytotoxic, single point]. In the case of COc1cccc(C2=NOC(C(=O)N3CCc4ccccc4C3)C2)c1 (stereo not drawn), the Potency is reported as inconclusive: 29.1 µM [cytotoxic, single point]. In the case of C[C@@H]1CN([C@H](C)CO)S(=O)(=O)c2ccc(Br)cc2O[C@@H]1CN(C)Cc1ccc(C(=O)O)cc1, the Potency is reported as inconclusive: 20.6 µM [rising, partial curve, poor fit]. In the case of CC1=C/C(=C(\c2cc(C)c(O)c(Br)c2)c2ccccc2S(=O)(=O)O)C=C(Br)C1=O, the Potency is reported as inconclusive: 29.1 µM [cytotoxic, single point]. For O=C(NCC(c1ccc2c(c1)OCO2)N1CCOCC1)C(=O)Nc1ccc(Cl)cc1 (stereo not drawn), the “activity change, negative = cytotoxic” value was inactive: 6.98%. In the case of CNC(=O)c1ccc(-c2sc3nc(N4CCOCC4)c4c(c3c2N)CC(C)(C)OC4)o1, the “activity change, negative = cytotoxic” value is reported as inactive: -7.56%. In the case of Clc1cc(Br)ccc1OCCCNCc1ccccc1, the Potency is reported as inconclusive: 23.1 µM [cytotoxic, single point].
